PubChem BioAssay AID504764, Drosophila RNAi Screening Center, 2011

Screen: 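Genes whose knock-down alters Notch-dependent transcription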 (primary screen)
Cells: Drosophila Kc167 cells
Reagents: long dsRNA against Drosophila genes
Duration: about 5 days (4 days dsRNA, then 24 h after transfection)
Conditions: transfection of constitutively active membrane-tethered Notch lacking the extracellular domain, read 24 h later
Detection: 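Light from a Notch-responsive E(spl)m3 luciferase reporter under active Notch, with control-promoter and no-Notch reporter wells to normalise; raw counts from paired wells a and b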
Reading the numbers: induced reporter light, run 1, well a and induced reporter light, run 1, well b: higher = more light from the Notch target reporter with active Notch; control promoter light, run 1, well a and control promoter light, run 1, well b: higher = more light from the viral control promoter (cell number, transfection, viability); uninduced reporter light, run 1, well a: higher = more light from the Notch target reporter without active Notch
Rule for the call: 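Hit if the duplicate-averaged log2 ratio of induced to control-promoter light gives a plate-wise z beyond ±2, or induced to uninduced beyond ±1.8; weak-control or discordant-duplicate wells dropped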
Calls: active = modifier hit (raised or lowered Notch signal); inactive = not a hit
In all, the deposit lists about 22,000 reagents; below is an unselected part of those with a known target gene and a result. Of all reagents, 403 (1.9%) are marked active. 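Unnormalised raw counts per well; ratio z-scores behind the hit calls and whether each hit raises or lowers signal are not deposited.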 A plus sign joins genes that one reagent is predicted to hit. Not stated in the record: the amount of reagent.

With knock-down of CG7849 [SID104184687], the screen gave induced reporter light, run 1, well a = 1.43e5; induced reporter light, run 1, well b = 1.34e5; control promoter light, run 1, well a = 1.41e5; control promoter light, run 1, well b = 1.40e5; uninduced reporter light, run 1, well a = 9445; inactive.
Depletion of CG31954 [SID104180372] resulted in: induced reporter light, run 1, well a = 2.37e5; induced reporter light, run 1, well b = 2.07e5; control promoter light, run 1, well a = 2.40e5; control promoter light, run 1, well b = 2.61e5; uninduced reporter light, run 1, well a = 22060; inactive.
Depletion of CG14543 [SID104194679] resulted in: induced reporter light, run 1, well a = 2.15e5; induced reporter light, run 1, well b = 1.69e5; control promoter light, run 1, well a = 2.71e5; control promoter light, run 1, well b = 2.87e5; uninduced reporter light, run 1, well a = 14590; inactive.
Against CG13059 [SID104189734], the entry reads induced reporter light, run 1, well a = 1.81e5; induced reporter light, run 1, well b = 1.97e5; control promoter light, run 1, well a = 2.19e5; control promoter light, run 1, well b = 2.29e5; uninduced reporter light, run 1, well a = 13510; inactive.
Against CG11816 [SID104199220], the entry reads induced reporter light, run 1, well a = 93905; induced reporter light, run 1, well b = 85320; control promoter light, run 1, well a = 1.01e5; control promoter light, run 1, well b = 95280; uninduced reporter light, run 1, well a = 7590; inactive.
Silencing of Xxylt [SID104183899] came out at: induced reporter light, run 1, well a = 1.93e5; induced reporter light, run 1, well b = 1.84e5; control promoter light, run 1, well a = 1.53e5; control promoter light, run 1, well b = 1.74e5; uninduced reporter light, run 1, well a = 10728; inactive.
For Chi [SID104184394] the deposit lists induced reporter light, run 1, well a = 1.60e5; induced reporter light, run 1, well b = 1.55e5; control promoter light, run 1, well a = 1.32e5; control promoter light, run 1, well b = 1.64e5; uninduced reporter light, run 1, well a = 13165; inactive.
Against Gr93a [SID104194385] the deposit lists induced reporter light, run 1, well a = 1.98e5; induced reporter light, run 1, well b = 1.76e5; control promoter light, run 1, well a = 2.16e5; control promoter light, run 1, well b = 1.96e5; uninduced reporter light, run 1, well a = 13142; inactive.
CG33339 [SID104202275] showed inactive.
With knock-down of CG3213 [SID104180368], the record shows induced reporter light, run 1, well a = 69675; induced reporter light, run 1, well b = 46990; control promoter light, run 1, well a = 56195; control promoter light, run 1, well b = 54745; uninduced reporter light, run 1, well a = 3305; inactive.
Silencing of att-ORFB + DPCoAC [SID104195348] gave: induced reporter light, run 1, well a = 1.43e5; induced reporter light, run 1, well b = 1.42e5; control promoter light, run 1, well a = 1.78e5; control promoter light, run 1, well b = 1.87e5; uninduced reporter light, run 1, well a = 11640; inactive.
After knock-down of Ir11a [SID104199491] the results were induced reporter light, run 1, well a = 1.12e5; induced reporter light, run 1, well b = 1.08e5; control promoter light, run 1, well a = 1.89e5; control promoter light, run 1, well b = 2.13e5; uninduced reporter light, run 1, well a = 9300; inactive.
Silencing of mtd [SID104191923] resulted in: induced reporter light, run 1, well a = 1.08e5; induced reporter light, run 1, well b = 1.42e5; control promoter light, run 1, well a = 1.08e5; control promoter light, run 1, well b = 86520; uninduced reporter light, run 1, well a = 11860; inactive.
After knock-down of mtd [SID104192172] the results were induced reporter light, run 1, well a = 1.09e5; induced reporter light, run 1, well b = 1.14e5; control promoter light, run 1, well a = 86600; control promoter light, run 1, well b = 90150; uninduced reporter light, run 1, well a = 9765; inactive.
mtd [SID104192173] showed induced reporter light, run 1, well a = 83000; induced reporter light, run 1, well b = 90605; control promoter light, run 1, well a = 1.29e5; control promoter light, run 1, well b = 68870; uninduced reporter light, run 1, well a = 5535; inactive.
Against slam [SID104183032], the values are induced reporter light, run 1, well a = 1.84e5; induced reporter light, run 1, well b = 1.64e5; control promoter light, run 1, well a = 2.21e5; control promoter light, run 1, well b = 2.23e5; uninduced reporter light, run 1, well a = 9795; inactive.
For CG4607 [SID104198167] the deposit lists induced reporter light, run 1, well a = 1.27e5; induced reporter light, run 1, well b = 1.45e5; control promoter light, run 1, well a = 2.68e5; control promoter light, run 1, well b = 2.60e5; uninduced reporter light, run 1, well a = 10430; inactive.
For CG9517 (retired record) [SID104199984], the entry reads induced reporter light, run 1, well a = 1.44e5; induced reporter light, run 1, well b = 93105; control promoter light, run 1, well a = 1.24e5; control promoter light, run 1, well b = 97360; uninduced reporter light, run 1, well a = 14220; inactive.
For CG9517 (retired record) [SID104199985], the values are induced reporter light, run 1, well a = 83930; induced reporter light, run 1, well b = 67575; control promoter light, run 1, well a = 87880; control promoter light, run 1, well b = 77810; uninduced reporter light, run 1, well a = 11690; inactive.
